Reference: PubChem BioAssay AID485353 (National Center for Advancing Translational Sciences (NCATS), 2010)
Hit rate of the full screen: of about 330,000 compounds, about 610 (0.18%) were called active. Inconclusive results, whose numbers are uncertain, are shown with a selection of clear calls. The call rests on the fitted dose curve. Potencies of inconclusive entries are doubtful fits and often do not repeat.

Assay: qHTS of Yeast-based Assay for SARS-CoV PLP; further: nearly all actives have a fitted effect of over 55% in size; on activity, positive = growth rescue: 0% is about no effect
Details: S. cerevisiae expressing SARS-CoV PLpro; Potency: growth rescue; activity, positive = growth rescue: at 32.9 µM (top of the series)
Potency means the concentration at half of the fitted maximal effect.

Q: For `Cc1ccc(-c2noc(COc3ccc4c(c3)OCO4)n2)cc1`, which Potency is on record?
A: active: 12.6 µM

Q: Which Potency does the source give for `N#CCC(=O)NC(=O)NCC1CC1` here?
A: inconclusive: 12.6 µM [activator, single point]

Q: Which “activity, positive = growth rescue” value does the source give for `CCCn1c(-c2ccc(OC)cc2)nc2c(=O)n(C)c(=O)[nH]c21` here?
A: inactive: 10.6%

Q: For `Cc1ccc(-n2nc3ccc(N)cc3n2)c(C)c1`, which “activity, positive = growth rescue” value is on record?
A: inactive: 1.09%

Q: With `Cn1c(SCC(=O)Nc2ccc3c(c2)n(C)c(=O)n3C)nnc1-c1ccncc1` as the compound, how does the “activity, positive = growth rescue” value read?
A: inactive: 1.03%

Q: For `O=C(COC(=O)c1ccco1)NCc1ccco1`, which Potency is on record?
A: inconclusive: 3.98 µM [activator, single point]

Q: For `CC(C)NC(=O)NC(=O)COC(=O)Cc1ccsc1`, which Potency is on record?
A: inconclusive: 2.24 µM [activator, single point]

Q: For `COc1ccc(CC2(C)OC(c3ccc([N+](=O)[O-])cc3)=NN2C(C)=O)cc1` (centres undefined), which “activity, positive = growth rescue” value is on record?
A: inactive: -3.92%

Q: With `O=C(CN1C(=O)C2C3C=CC(C3)C2C1=O)NCc1ccccc1` (centres undefined) as the compound, how does the Potency read?
A: inconclusive: 4.47 µM [activator, single point]

Q: Which Potency does the source give for `Cc1c(/C=C2\NC(=O)NC2=O)c2ccccc2n1C` here?
A: inconclusive: 2.24 µM [activator, single point]

Q: Which Potency does the source give for `COc1ccc(S(=O)(=O)N(CC(=O)N2CCN(c3ccccc3OC)CC2)c2ccccc2)cc1` here?
A: active: 4.47 µM

Q: For `O=C(c1cccc(Cl)c1)N(Cc1cccs1)C1CCS(=O)(=O)C1` (centres undefined), which Potency is on record?
A: inconclusive: 17.8 µM [activator, single point]

Q: For `O=C1C2=C(C(=O)c3ccccc31)C1O[C@](c3ccsc3)(Cc3ccccc31)O2`, which Potency is on record?
A: inconclusive: 4.47 µM [activator, single point]

Q: Which Potency does the source give for `CC(C)c1nc(SCC(=O)NC2CCCC2)c2c(=O)n(C)c(=O)n(C)c2n1` here?
A: inconclusive: 0.355 µM [activator, full curve, poor fit]

Q: For `CC(=O)N1CCCc2cc(S(=O)(=O)CCC(=O)N3CCN(c4cccc(C)c4)C(C)C3)ccc21` (centres undefined), which Potency is on record?
A: inconclusive: 20 µM [activator, single point]

Q: With `CCCCN=C1CC(C)(C)CC(=O)/C1=C(/O)CCC` as the compound, how does the “activity, positive = growth rescue” value read?
A: inactive: -0.668%

Q: With `O=S(=O)(Cc1cc(Cl)nc(-c2ccncc2)n1)c1ccccc1` as the compound, how does the “activity, positive = growth rescue” value read?
A: inactive: -2.68%

Q: For `CCn1cc(C2=NC(c3ccccc3)CO2)c2ccccc21` (centres undefined), which Potency is on record?
A: inconclusive: 17.8 µM [activator, single point]

Q: For `COc1ccccc1C(=O)COC(=O)CN1C(=O)c2ccccc2C1=O`, which Potency is on record?
A: inconclusive: 20 µM [activator, single point]

Q: Which Potency does the source give for `CCOc1ccc(CNC(=O)C2CCN(S(=O)(=O)c3ccc4c(c3)CCCC(=O)N4)CC2)cc1` here?
A: inconclusive: 3.98 µM [activator, single point]

Q: With `O=C(c1cc(C(=O)N2CCOCC2)c2nc3ccccc3n2c1)c1ccccc1O` as the compound, how does the “activity, positive = growth rescue” value read?
A: inactive: -0.0152%

Q: For `CCOc1ccc2[nH]c(=O)c(C(c3nnnn3CC3CCCO3)N3CCc4ccccc4C3)cc2c1` (centres undefined), which Potency is on record?
A: inconclusive: 17.8 µM [activator, single point]

Q: Which Potency does the source give for `C[C@]12c3[nH]c4ccccc4c3CCN1C(=O)C(CC(=O)NCc1cccc(C(F)(F)F)c1)C[C@@H]2C(=O)N1CCCCC1` (some centres undefined) here?
A: inconclusive: 3.55 µM [activator, partial curve]

Q: For `COC(=O)c1c[nH]n2c(=O)cc(C)nc12`, which Potency is on record?
A: inconclusive: 20 µM [activator, single point]

Q: Which “activity, positive = growth rescue” value does the source give for `O=C(c1cccc(Br)c1)N1CCN(C(=O)c2cccc(Br)c2)CC1` here?
A: inactive: -6.64%

Q: For `NC(=O)c1ccc(Oc2ccc(Cl)c3ccccc23)c([N+](=O)[O-])c1`, which Potency is on record?
A: active: 4.47 µM

Q: With `Nc1c2c(=O)oc(-c3ccccc3)cc2nn1-c1ccccc1` as the compound, how does the “activity, positive = growth rescue” value read?
A: inactive: -7.22%

Q: Which Potency does the source give for `O=C(CSc1ccc2nnc(-c3cccnc3)n2n1)NCc1ccc2c(c1)OCO2` here?
A: inconclusive: 12.6 µM [activator, partial curve]

Q: With `CCc1ccc(C2=NN(S(C)(=O)=O)C(c3cccs3)C2)cc1` (centres undefined) as the compound, how does the “activity, positive = growth rescue” value read?
A: inactive: -16.8%

Q: Which Potency does the source give for `O=c1oc2ccccc2n1CSc1nc2ccccc2s1` here?
A: inconclusive: 3.98 µM [activator, single point]

Q: For `CCC1CCCCN1S(=O)(=O)c1ccc(C(=O)N(CCCN(C)C)c2nc3cc4c(cc3s2)OCO4)cc1` (centres undefined), which Potency is on record?
A: inconclusive: 4.47 µM [activator, partial curve]

Q: With `Cc1cc(NC(=O)CC(C)(C)C)nc2c1c(=O)oc1ccccc12` as the compound, how does the Potency read?
A: inconclusive: 10 µM [activator, partial curve]

Q: With `Cc1onc(-c2ccccc2Cl)c1C(=O)NCCCc1ccccc1` as the compound, how does the Potency read?
A: inconclusive: 3.55 µM [activator, single point]

Q: For `CCOC(=O)C1CCN(C(C(=O)NC2CCCC2)c2ccc(C)cc2)CC1` (centres undefined), which “activity, positive = growth rescue” value is on record?
A: inactive: -8.15%

Q: For `CCc1cc(C(=O)NNC(=S)Nc2cc(C)ccc2C)cs1`, which Potency is on record?
A: inconclusive: 22.4 µM [activator, single point]

Q: For `CC(=O)Nc1cccc(NC(=O)CSc2ccc(-c3ccccn3)nn2)c1`, which Potency is on record?
A: inconclusive: 10 µM [activator, partial curve]

Q: Which Potency does the source give for `CNC(=S)N/N=C/c1cn(CCOc2ccc(OC)cc2)c2ccccc12` here?
A: inconclusive: 22.4 µM [activator, partial curve]

Q: With `CC(OC(=O)Cn1cnc2c1c(=O)n(C)c(=O)n2C)C(=O)NC(C)c1ccc(Cl)cc1Cl` (centres undefined) as the compound, how does the “activity, positive = growth rescue” value read?
A: inactive: 2.61%

Q: Which Potency does the source give for `CCN1C(=NCCN2CCOCC2)N[C@@H](CCc2ccccc2)C(C(=O)OC)=C1C` here?
A: inconclusive: 4.47 µM [activator, single point]

Q: For `CN(C)c1ccc(/C=C2\C(=N)N3C(=NC2=O)Sc2cc(S(C)(=O)=O)ccc23)cc1`, which “activity, positive = growth rescue” value is on record?
A: inactive: 1.54%

Q: Which Potency does the source give for `O=C(c1sc2cccc(F)c2c1Cl)N1CCN(c2ncccn2)CC1` here?
A: inconclusive: 1.58 µM [activator, partial curve]

Q: Which Potency does the source give for `O=C(COc1ccc(Cl)cc1)Nc1ccc(C(=O)O)cc1NC(=O)COc1ccc(Cl)cc1` here?
A: inconclusive: 4.47 µM [activator, single point]

Q: With `COc1ccc(N(CC(=O)NCc2ccc(F)cc2)C(=O)c2snc(C(N)=O)c2N)cc1` as the compound, how does the Potency read?
A: active: 15.8 µM

Q: For `Cc1ccc(OCC(=O)Nc2cccc(O)c2)cc1C`, which Potency is on record?
A: inconclusive: 20 µM [activator, single point]

Q: Which Potency does the source give for `Cc1ccccc1NC(=O)Cc1nc(COC(=O)CSc2ccccc2)cs1` here?
A: inconclusive: 1 µM [activator, full curve]

Q: Which Potency does the source give for `CCOC(=O)C1=C(CC)OC(N)=C(C#N)C1c1ccc(OC)c(C)c1OC` (centres undefined) here?
A: inconclusive: 3.55 µM [activator, partial curve]

Q: With `COc1cc(C(=O)NC2CCN(Cc3nnnn3Cc3cccs3)CC2)cc(OC)c1OC` as the compound, how does the Potency read?
A: active: 3.98 µM

Q: For `COc1ccccc1NS(=O)(=O)c1cccc(C(=O)OCC(=O)NC2CC2)c1`, which Potency is on record?
A: inconclusive: 20 µM [activator, single point]

Q: With `CN=C(c1ccccc1)c1c(C)cccc1C` as the compound, how does the Potency read?
A: inconclusive: 2.51 µM [activator, full curve]

Q: For `O=C(CCl)Nc1cccc2ncccc12`, which Potency is on record?
A: active: 11.2 µM

Q: With `O=C(c1ccc2c3c(cccc13)CC2)C1CCCN(Cc2ccc(OCCO)cc2)C1` (centres undefined) as the compound, how does the “activity, positive = growth rescue” value read?
A: inactive: 0.404%

Q: Which “activity, positive = growth rescue” value does the source give for `CC(NC(=O)c1ccco1)c1nc(-c2ccccc2)no1` (centres undefined) here?
A: inactive: -0.199%

Q: For `CCc1ccc(NC(=O)N(CCN2CCOCC2)Cc2ccc3c(c2)CCCN3CC)cc1`, which Potency is on record?
A: inconclusive: 20 µM [activator, single point]

Q: Which Potency does the source give for `O=C(Nc1nnc(Cc2ccccc2)s1)Nc1ccccc1F` here?
A: inconclusive: 0.355 µM [activator, full curve, poor fit]

Q: Which “activity, positive = growth rescue” value does the source give for `CC(=O)CCC1CC(c2ccc(Cl)cc2)=NO1` (centres undefined) here?
A: inactive: 1.98%

Q: With `CCN(CC)S(=O)(=O)c1cc(C(=O)O)ccc1OC` as the compound, how does the “activity, positive = growth rescue” value read?
A: inactive: 0.379%

Q: With `COc1cc(SC)ccc1C(=O)OCC(=O)N1CC(=O)Nc2ccccc21` as the compound, how does the “activity, positive = growth rescue” value read?
A: inactive: -9.65%

Q: Which “activity, positive = growth rescue” value does the source give for `CCCC(=O)Nc1ccc(Cl)c(NC(=O)c2cccnc2)c1` here?
A: inactive: 2.01%

Q: Which Potency does the source give for `Cc1ccc([N+](=O)[O-])cc1NC(=O)C1CCN(S(C)(=O)=O)CC1` here?
A: inconclusive: 4.47 µM [activator, single point]

Q: With `Nc1c(C(=O)O)sc2nc3c(cc12)CCCC3` as the compound, how does the “activity, positive = growth rescue” value read?
A: inactive: 1.17%

Q: With `Cc1ccc2nc(Cl)c(/C=N/NC(=O)[C@H]3C[C@@H]3c3ccccc3)cc2c1` as the compound, how does the “activity, positive = growth rescue” value read?
A: inactive: -17%

Q: With `COCCNC(=S)N(CCc1c(C)[nH]c2ccccc12)Cc1cccnc1` as the compound, how does the “activity, positive = growth rescue” value read?
A: inactive: -1.25%

Q: For `COc1ccc(OCCOC(=O)Nc2ccccc2)cc1`, which Potency is on record?
A: inconclusive: 20 µM [activator, single point]

Q: For `Cc1noc2ncnc(Oc3ccc4ccccc4c3)c12`, which Potency is on record?
A: inconclusive: 4.47 µM [activator, single point]

Q: Which “activity, positive = growth rescue” value does the source give for `O=C1Nc2ccc(F)cc2C12Nc1ccccc1-c1nnc(SCc3ccccc3)nc1O2` (centres undefined) here?
A: inactive: -16.2%

Q: Which “activity, positive = growth rescue” value does the source give for `CC(=O)COc1ccc(-c2csnn2)cc1` here?
A: inactive: 1.24%

Q: With `Cc1ccc(NC(=O)C(=O)NCc2ccc(/C=C(/C#N)C(=O)NCc3cccnc3)o2)cc1C` as the compound, how does the Potency read?
A: inconclusive: 3.16 µM [activator, partial curve]

Q: Which “activity, positive = growth rescue” value does the source give for `COc1ccc(N2CCN(C(c3nnnn3C3CCCC3)C(C)C)CC2)cc1` (centres undefined) here?
A: inactive: 0.35%

Q: With `N#CC1=C(N)NC(SCc2ccccc2)=C(C#N)C12CCCC2` as the compound, how does the Potency read?
A: inconclusive: 12.6 µM [activator, single point]

Q: Which Potency does the source give for `CCOc1cc(C)ccc1OCc1nnc(SCC(=O)c2cccc([N+](=O)[O-])c2)n1C` here?
A: inconclusive: 20 µM [activator, single point]

Q: Which Potency does the source give for `O=C1/C(=C/c2ccccc2O)SC(=S)N1Cc1cccnc1` here?
A: inconclusive: 10 µM [activator, single point]

Q: For `Cc1ccc(SC(C)C(=O)Nc2c(C)n(C)n(-c3ccccc3)c2=O)cc1` (centres undefined), which Potency is on record?
A: inconclusive: 20 µM [activator, single point]

Q: With `Cc1cc(/C=N/n2c(COc3ccccc3C)nc3ccccc3c2=O)c(O)c([N+](=O)[O-])c1` as the compound, how does the Potency read?
A: active: 3.55 µM

Q: For `O=C(CSc1ccccn1)N1CCN(c2ncc(C(F)(F)F)cc2Cl)CC1`, which “activity, positive = growth rescue” value is on record?
A: inactive: -0.326%
